Experimental data as given in patent US20140263071A1, “METHOD FOR COLLECTING METALS” (CHEMEC OY AB, priority 2011, published 2014).

Legend:
[1] = Optimal expulsion pH range with minimum expulsion percent, single elements (Example 7)
Protocol: A water solution (110 ml) containing known amount of single cationic element or elements, typically 0.5-200 ppm, was prepared from Merch Titrisol® standard solution. After adjusting pH by using acid (e.g. HCl or HNO3) or base (e.g. NaOH) to desired initial value, sample A (10 ml) was taken followed by adding 100 mg of selected solid complexation agent. The mixture was stirred at room temperature for 24 h and sample B (10 ml) was taken. Samples A and B were filtrated separately trough 0.2 μm syringe filter and the concentration of the studied element or elements in both solution was determined by using atomic absorption spectrophotometer. The expulsion percent was determined from the concentration differences between the sample solutions A and B.
Using the above mentioned general procedure optimal expulsion pH ranges for each metal with complexation agent 1a was determined. For each element the expulsion percent was determined in 5-14 different pH value. The obtained results are shown in table below with minimum expulsion percent inside the optimal pH range.

[2] = Recycling and regeneration of solid bisphosphonate material (Example 27); conditions: 20 cycles; start 700 mg
Protocol: Compound 1a (700 mg) was weighed on sintered disc (porosity G-4) and aqueous CuCl2x2 H2O (20 ml) solution containing ca. 47 700 ppm of copper was passed slowly through the powder under vacuum. […] After the sintered disc was dry, aqueous HCl (25 ml, 2M) was passed slowly through the sintered disc. During this regeneration process solid bisphoshonate material on sintered disc turned from blue to white and filtered HCl solution was pale blue. The same procedure using the original 1a powder on sintered disc and a fresh CuCl2x2 H2O (20 ml) solution was repeated 20 times. The copper concentrations measured by AAS of the filtered HCl solution was 2294 ppm, 859 ppm and 713 ppm after first, 10th and 20th regeneration cycle, respectively. The amount of 1a after the last regeneration step was 630 mg (90% of the original amount).

## NCCCCCCCCCCC(O)(P(=O)(O)O)P(=O)(O)O [Compound 1a, 11-Amino-1-hydroxyundecane-1,1-diyldiphosphonic acid]
[1]; Ag^+
  pH range: 1.5-12
[1]; Al^3+
  pH range: 1-2
[1]; Au^3+
  pH range: 0-2
[1]; Ba^2+
  pH range: 3-12
[1]; Bi^3+
  pH range: 0.5-4
[1]; Ca^2+
  pH range: 4-12
[1]; Cd^2+
  pH range: 3-11
[1]; Co^2+
  pH range: 4-11
[1]; Cr^3+
  pH range: 2.5-12
[1]; Cr^6+, As^3/5+, Ta^5+
  pH range: 0-12
[1]; Cu^2+
  pH range: 3-11
[1]; Cu^+
  pH range: 3-11
[1]; Eu^3+
  pH range: 2-8
[1]; Fe^2+
  pH range: 3-10
[1]; Fe^3+
  pH range: 1-11
[1]; Ga^3+, lower range
  pH range: 0.5-1
[1]; Ga^3+, upper range
  pH range: 6-11
[1]; Hg^2+
  pH range: 2-11
[1]; Hg^+
  pH range: 2-11
[1]; Ir^3+
  pH range: 0.0-0.5
[1]; La^3+
  pH range: 0-3.8
[1]; Li^+, Na^+, K^+
  pH range: 0-12
[1]; Mg^2+
  pH range: 4-12
[1]; Mn^2+
  pH range: 4-10
[1]; Mo^6+
  pH range: 4-10
[1]; Nb^5+
  pH range: 0-12
[1]; Nd^3+
  pH range: 2-8
[1]; Ni^2+
  pH range: 4-11
[1]; Os^4+
  pH range: 5-7
[1]; Pb^2+
  pH range: 2-9
[1]; Pd^2+
  pH range: 7-12
[1]; Pt^2+
  pH range: 0-1
[1]; Rh^3+
  pH range: 2-10
[1]; Ru^3+
  pH range: 2-11
[1]; Sb^3+
  pH range: 0.5-11
[1]; Sc^3+
  pH range: 0-12
[1]; Si^4+, Se^4/6+
  pH range: 0-12
[1]; Sn^2+
  pH range: 8-10
[1]; Sn^4+
  pH range: 7-11
[1]; Sr^2+
  pH range: 4-12
[1]; Ti^4+
  pH range: 10-12
[1]; V^4+
  pH range: 0-0.5
[1]; W^6+
  pH range: 0.5-3
[1]; Zn^2+
  pH range: 4-11
[2]
  amount of 1a after the last regeneration step: 630 mg
  amount of 1a after the last regeneration step, of the original amount: 90%
